Out of some 31,000 sequences screened, about 1,400 (4.5%) were called active.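 Rule for the calls: active = median seed-adjusted z-score above 1 or below -1; inactive = the rest.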 This is one part of the list.
Assay: Novel Modifiers of Survival Motor Neuron (SMN) Protein: Gene Identification via Genome-wide siRNA Screen;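 note: luminescence tracks full-length SMN protein made from the SMN2 reporter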
Details: HEK293T SMN2-luciferase reporter, siRNA knockdown, 72 h; actives lie on both sides
Outline: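 siRNA screen, 10418 genes ×3 siRNAs; 1 pmol/well, lipid reverse transfection into HEK293T SMN2-luc reporter line. 72 h, 37 °C, 5% CO2; ONE-Glo readout. Data: neg-ctrl normalized, log10, MAD; hit = MAD >1.0 or < -1.0.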

Sequence | median seed-adjusted z-score
GCACUAUGCUGGAUACAAATT against PGAP1 | inactive: -0.272
AAUAUGAACUGGAGAUGUATT against GTPBP5 | inactive: 0.0354
CAUUCUUUUGAGCAGGUUATT against ACSL6 | inactive: -0.0934
CCCUCGAGUUGGAAAUAAATT against CLDN9 | inactive: 0.398
UGAUCAUUUAAGACACUAATT against DIO1 | inactive: 0.0467
GAACAGGGAUGAAAGAAGATT against ZC3H11A | inactive: -0.137
AGUUUUCUGUAUGCAGUUATT against RBM23 | inactive: 0.14
CCCAUUAAGAUUAAUCUAATT against EIF2S1 | inactive: -0.175
CAUCUACAAAUGGUAUAAATT against AGA | inactive: -0.0433
CCGAAGCAGCUGAUCAGAATT against AKAP7 | inactive: 0.37
GGCUCUUACAGACAGCUUUTT against SRI | inactive: 0.994
GAAUAAGCAAGUCUUCUUUTT against ANG | inactive: -0.481
UGGCUGGAGUGGUCAAUAATT against MFSD3 | inactive: -0.0706
GGAGUCGAGCAGUCCUUUATT against KCNH8 | inactive: 0
CGGCUACUAUGGUGCUCUATT against ITGB7 | inactive: 0.443
GGAGACGUGGAGUACCUUATT against HDAC5 | inactive: -0.342
GUAACAACAAAUACUCAUATT against KCTD10 | inactive: -0.506
GGUCAAGAAGCAAUGCCCATT against SPRR4 | inactive: 0.211
GACCCAUGAUCCUAACAAATT against PLAGL2 | inactive: 0.0744
CAACAGUUCUGGGUGAAUATT against CYP24A1 | inactive: 0.136
GCCUUCGCUUUGAACCCAATT against ART5 | inactive: -0.354
GGAACAUGCUUAAGGUUGUTT against TDO2 | inactive: -0.141
GCGUAUUAAUAAUCACGAATT against MDN1 | inactive: 0.187

Sequence | median seed-adjusted z-score
CGAAGAAGCUAGACUCAGATT against ZNF346 | inactive: 0.00564
CCAUGAUCCUGUGGAUAAATT against HNRNPA2B1 | active: 1.33
GCACUGACUGAAUAAAGCUTT against GPBAR1 | inactive: -0.00293
CCUAUGCAGUAAUCUAUUUTT against CDC14A | inactive: 0.117
ACAAGAUGUAUCACCUAUATT against ZNF226 | inactive: 0.437
GCCGAGGAUUGGUUCUUCATT against KRT17 | inactive: -0.0871
GCUGAGAACUAAGAGAUGATT against PDLIM4 | inactive: -0.637
GAUCAAGUCCAAUAUCGAUTT against RALY | inactive: 0
AGAAGAUUGAUUUUUCUGATT against S100A7 | inactive: -0.253
GGGUCAGAGUGGGAGCAUUTT against VWA2 | inactive: 0.584
CACUAUUGCAUGUAUCGAATT against ARHGAP10 | inactive: -0.458
GGACAACGAUAACCGAUCATT against CA1 | inactive: 0.262
CACUUAUCCCUUAAUCUUUTT against PIGB | inactive: 0.199
ACAAUAUCAAGGAACAGGATT against GZMH | inactive: 0.946
GGAAGUUCCGUUUGACGUATT against LRPPRC | inactive: -0.373
CCGUAAUCGACAAAACUUUTT against SDHA | inactive: -0.103
GAAUUACAGUGACAGUUCATT against AP3M1 | inactive: 0
CAGAUAGACAAGAUAUUCATT against ARHGEF7 | inactive: 0.185
AAAUUUCACCGGCACCAAATT against TBR1 | inactive: -0.388
GGGACAAGAAAACUAGUUATT against CARD6 | inactive: 0
GGUUCAAUGUUGGAUAUCATT against STK39 | inactive: 0.232
AGAUAUUCUUGAUACUGGATT against NTS | inactive: 0.518
CCAAAGUGGGUGUCAACGATT against BGN | inactive: 0.376

Single values from above:
Value of CCUAUGCAGUAAUCUAUUUTT against CDC14A under median seed-adjusted z-score: inactive: 0.117
Value of GAUCAAGUCCAAUAUCGAUTT against RALY under median seed-adjusted z-score: inactive: 0
Value of AGAAGAUUGAUUUUUCUGATT against S100A7 under median seed-adjusted z-score: inactive: -0.253

(continued)

Sequence | median seed-adjusted z-score
AGGUCAAAGCCUUCCAUUATT against HMHA1 | inactive: -0.285
ACAUGAUUGGGAUCCACGATT against EMID2 | inactive: 0.0465
CAGCCGAACGAGUACCUGATT against CPNE7 | inactive: 0.262
ACUGACAUUUUUCAACUCATT against ALDH1L1 | inactive: 0.0289
GAAAUAUACUUCAGAUUCATT against SP2 | inactive: -0.617
CCCUGUUCCUGUUAGAUGATT against STK11IP | inactive: 0.0745
GGAUAAGAGGCAUGAGGAATT against PPP1R14C | inactive: -0.316
CGUCAGCGGUUUAGCUGGATT against SLC25A10 | inactive: -0.571
CGAGAACCAUGGAGUUGAATT against PMVK | inactive: 0.269
GGUUAUACCCUCAACUACATT against PARP2 | inactive: -0.366
CGGAGUAGCUGAGAUCUUATT against COL15A1 | inactive: 0.161
CACUGUAGUUUCUCUAUUUTT against SLC2A3 | inactive: -0.277
GCAACGGGUUUGGAGUCAATT against KRT75 | inactive: 0.0773
GCACGUAACAGCUAAGGAATT against EIF2B5 | inactive: -0.432
GGAUGAUAAAUGACACCUATT against ST6GALNAC3 | inactive: -0.205
GAGAUGUACUUGAACGUAATT against PIK3C3 | inactive: 0
GCCUAUAGGAUUGAACCAATT against DDHD2 | inactive: 0.447
GGCAAAGUUGUAAAGGUUATT against ZCRB1 | inactive: 0.265
AGCUAAAGAUCAUCAAGAATT against LONP1 | inactive: -0.291
GGCUCAAAAACUAAGUGAATT against WDHD1 | inactive: -0.0501
GACAAGACGUGGUCAAGAATT against BCL2L13 | inactive: 0.311
CCCACAGAGUAGCUACUGATT against CD2 | inactive: 0.00791
